Data on one molecule can be found in patent CN116199778A.

The chains behind the UniProt entries cited, without tags or fusion partners. Where a name states a change or a piece, a line headed by the entry shows the natural chain unless it says otherwise. A line that says so, or that is headed by a name, gives the form on record, which may keep a tag or linker. Residues count along the entry.
UniProt Q07011: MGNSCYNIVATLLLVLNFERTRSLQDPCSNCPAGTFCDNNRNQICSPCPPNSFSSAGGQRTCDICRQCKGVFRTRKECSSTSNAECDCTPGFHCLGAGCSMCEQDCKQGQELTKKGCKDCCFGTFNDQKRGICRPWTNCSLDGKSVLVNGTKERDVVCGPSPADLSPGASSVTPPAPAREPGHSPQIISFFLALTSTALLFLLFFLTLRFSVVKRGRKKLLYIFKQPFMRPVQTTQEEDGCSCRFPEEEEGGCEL
4-1BB on the surface of Jurkat NFKB 4-1BB cells: residues 24-255 of Q07011
含有His标签的人4-1BB (human 4-1BB extracellular region with His tag): residues 24-186 of Q07011

The target of test [1] is 4-1BB on the surface of Jurkat NFKB 4-1BB cells (UniProt Q07011). Kind of test: flow cytometry on Jurkat NFKB 4-1BB cells.
The target in test [2] is 含有His标签的人4-1BB (human 4-1BB extracellular region with His tag) (human) (UniProt Q07011). The experiment in a line: ELISA, His-tagged human 4-1BB coated. On the technique in general: In an ELISA, binding on a coated surface is turned into a signal by an enzyme label.

No constants are given. Whether binding was seen depends on the method and setting. Some entries that bind do so weakly or less than the wild type.

B1: JS011-phage6 (antibody, V domains shown)
VH: QVQLVQSGAEVKKPGASVKVSCKASGYTFTGQYIHWARQAPGQGLEWMGWINPNSGGTNYAQKFQGRVTMTRDTSISTAYMELSRLRSDDTAVYYCARDKAGADYWGQGTLVTVSS
VL: ELALTQPPSVSGSPGQSITISCTGTSSDIGGYDYVSWYQQYPGKAPKLMISGVSNRPSGVSNRFSGSKSGNTASLIISGLQAEDEGDYYCSSYTSRSTRWVFGGGTKLTVL
For B1, the binding entry in test [1] and in test [2] was “binds” each time.
